Test results from publication PMC5669500, “Scaffolding the cup-shaped double membrane in autophagy” (PLoS Computational Biology, 2017).
Numbering of substitutions follows the chain as printed. Names may count otherwise. Results are given in words; binding and its absence hold for the method and conditions named. Some binding calls cover weakened binding; strength is not graded here. Tags and fused reporters may be left off the sequences shown.

B1: Atg17, wild type (natural protein, Saccharomyces cerevisiae, UniProt Q06410 1-417, looked up)
chain: MNEADVTKFVNNARKTLTDAQLLCSSANLRIVDIKKKLSSWQLSISKLNFLIVGLRQQGKFLYTILKEGIGTKLIQKQWNQAVLVVLVDEMKYWQYEITSKVQRLDGIVNELSISEKDDTDPSKLGDYISRDNVNLLNDKLKEVPVIERQIENIKLQYENMVRKVNKELIDTKLTDVTQKFQSKFGIDNLMETNVAEQFSRELTDLEKDLAEIMNSLTQHFDKTLLLQDKKIDNDEREELFKVVQGDDKELYNIFKTLHEVIDDVDKTILNLGQFLQAKIKEKTELHSEVSEIINDFNRNLEYLLIFKDISNLIDSFKNSCTQDIQTTKELCEFYDNFEESYGNLVLEAKRRKDVANRMKTILKDCEKQLQNLDAQDQEERQNFIAENGTYLPETIWPGKIDDFSSLYTLNYNVKNP
notes: Atg17, Saccharomyces cerevisiae; The Atg17 chain of m1; source: E. coli BL21 (DE3), co-expressed with Atg31 and His6-Atg29 from pST39, purified (Ni-NTA, Superose 6)
B2: Atg17 mutant M1 (K318D/Q326D/K329D) (natural protein, Saccharomyces cerevisiae, UniProt Q06410 1-417, looked up)
chain: B1 chain with K318D, Q326D, K329D
notes: Atg17, Saccharomyces cerevisiae; The Atg17 chain of m2; source: E. coli BL21 (DE3), co-expressed with Atg31 and His6-Atg29 from pST39, purified (Ni-NTA, Superose 6)
B3: Atg17 mutant M2 (K318D/K329D/Y93E/W94E) (natural protein, Saccharomyces cerevisiae, UniProt Q06410 1-417, looked up)
chain: B1 chain with Y93E, W94E, K318D, K329D
notes: Atg17, Saccharomyces cerevisiae; The Atg17 chain of m3; source: E. coli BL21 (DE3), co-expressed with Atg31 and His6-Atg29 from pST39, purified (Ni-NTA, Superose 6)
B4: Atg17 mutant M3 (K8D/R14D/K249D) (natural protein, Saccharomyces cerevisiae, UniProt Q06410 1-417, looked up)
chain: B1 chain with K8D, R14D, K249D
notes: Atg17, Saccharomyces cerevisiae; The Atg17 chain of m4; source: E. coli BL21 (DE3), co-expressed with Atg31 and His6-Atg29 from pST39, purified (Ni-NTA, Superose 6)
B5: Atg17 mutant M4 (K164D/K173D/R299D) (natural protein, Saccharomyces cerevisiae, UniProt Q06410 1-417, looked up)
chain: B1 chain with K164D, K173D, R299D
notes: Atg17, Saccharomyces cerevisiae; The Atg17 chain of m5; source: E. coli BL21 (DE3), co-expressed with Atg31 and His6-Atg29 from pST39, purified (Ni-NTA, Superose 6)
B6: Atg17 mutant M5 (K92D/L141D) (natural protein, Saccharomyces cerevisiae, UniProt Q06410 1-417, looked up)
chain: B1 chain with K92D, L141D
notes: Atg17, Saccharomyces cerevisiae; The Atg17 chain of m6; source: E. coli BL21 (DE3), co-expressed with Atg31 and His6-Atg29 from pST39, purified (Ni-NTA, Superose 6)
B7: Atg31 (protein, UniProt Q12421 1-196)
chain: MNVTVTVYDKNVKYRLEENIKNNKGPSNDDQPAYNNESKSTDGSDYAMFPTNIKYIFEDNNDELVDSSDAALTAGIDKVGDELENVIIVQLDESGSLEDITLISDQYELLSHRTNSLSLEENQMRTLSSHGDDKSNDEEEELSVDSDRFRVDSDIELDVISQFCDLSPFLRDLSLNDLIKLYVTQNEQLQMLSNSV

These binders were tested against T1, His6-Atg29 (Saccharomyces cerevisiae) (UniProt Q12092) (assay: SEC; ternary complex co-expressed in E. coli, captured on Ni-NTA by His6-Atg29, then Superose 6 10/300GL in 20 mM Tris pH 8, 200 mM NaCl, 0.1 mM TCEP; peak fractions analysed by SDS-PAGE; both purified).
T1 sequence: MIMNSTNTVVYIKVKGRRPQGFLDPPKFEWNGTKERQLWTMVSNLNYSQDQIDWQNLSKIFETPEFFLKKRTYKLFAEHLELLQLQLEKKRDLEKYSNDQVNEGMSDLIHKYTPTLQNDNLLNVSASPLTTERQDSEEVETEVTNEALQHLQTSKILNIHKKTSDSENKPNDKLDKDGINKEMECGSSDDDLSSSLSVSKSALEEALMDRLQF

binding, binds:
B1, B2, B3, B4, B5, B6, B7

What follows are binders tested against T2, Atg31 (Saccharomyces cerevisiae) (UniProt Q12421) in the same assay as above.
T2 sequence: B7 chain

binding, binds:
B1, B2, B3, B4, B5, B6
